Laboratory results: paper PMC3365016

Protein sequences, listed by entry. Tags and fused reporters are not part of them.
UniProt P09405: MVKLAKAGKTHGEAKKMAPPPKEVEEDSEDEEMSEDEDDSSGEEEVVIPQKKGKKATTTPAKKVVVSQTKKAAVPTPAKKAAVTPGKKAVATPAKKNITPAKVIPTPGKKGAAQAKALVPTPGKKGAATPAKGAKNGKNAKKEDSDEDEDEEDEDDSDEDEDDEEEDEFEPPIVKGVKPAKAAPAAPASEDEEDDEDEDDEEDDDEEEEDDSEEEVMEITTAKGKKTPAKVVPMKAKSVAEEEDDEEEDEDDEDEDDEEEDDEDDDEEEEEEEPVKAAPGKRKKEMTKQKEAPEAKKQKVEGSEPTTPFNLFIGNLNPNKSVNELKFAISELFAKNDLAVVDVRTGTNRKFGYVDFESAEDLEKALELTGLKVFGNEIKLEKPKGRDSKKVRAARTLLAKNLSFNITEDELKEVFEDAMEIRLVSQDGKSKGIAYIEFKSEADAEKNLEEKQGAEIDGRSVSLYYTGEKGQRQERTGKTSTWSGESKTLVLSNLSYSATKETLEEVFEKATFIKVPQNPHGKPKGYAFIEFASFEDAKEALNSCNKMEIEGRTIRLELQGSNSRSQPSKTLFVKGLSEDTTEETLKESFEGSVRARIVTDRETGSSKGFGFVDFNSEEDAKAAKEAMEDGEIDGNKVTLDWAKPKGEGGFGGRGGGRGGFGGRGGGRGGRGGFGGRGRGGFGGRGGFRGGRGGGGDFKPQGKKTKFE

Biological target: T1, V5-tagged G0S2 (G0/G1 switch gene 2), murine, full length (mouse) (UniProt Q61585)
T1 sequence: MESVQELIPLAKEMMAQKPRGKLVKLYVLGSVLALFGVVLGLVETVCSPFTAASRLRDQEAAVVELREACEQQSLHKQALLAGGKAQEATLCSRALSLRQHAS
Assay: affinity purification with mass spectrometry; anti-V5 immunoprecipitation (Protein G-sepharose) from lysates of EL4 cells transduced with V5-tagged G0S2 or empty retrovirus; 150 mM NaCl, 50 mM Tris pH 8, 1% Triton X-100; Coomassie-stained bands cut out, trypsin, peptide mass fingerprinting

- binding: binds
Substance: nucleolin, endogenous (mouse cells) (from UniProt P09405 1-707)

No constants are given. Whether binding was seen depends on the method and setting. Binding seen in cells or lysates may run through a third protein. A yes stands for co-enrichment or nearness to the bait. Other partners may have been found. Sequences can lack the tags named with a protein.
